The target in experiment [1] is IQD2_(C-half) fused to the Gal4 DNA-binding domain (Arabidopsis thaliana). The experiment can be described thus: two-hybrid.
Experiment [2] concerns the target IQD2_(ΔNterm) fused to the Gal4 DNA-binding domain (Arabidopsis thaliana). The experiment is described as follows: two-hybrid.

The values below come from publication doi:10.1101/2024.10.01.615909 (bioRxiv, 2024).

Results are given in words; binding and its absence hold for the method and conditions named. A result given as binding can be weak or reduced; the word gives no strength. Sequences can lack the tags named with a protein.

B1: KLCR1 fused to the Gal4 activation domain (protein, UniProt O81629 1-609)
chain: MPAMPGLVSVKTPSDTPPLRVAVPDTQPLSNPPRTPMKKTPSSTPSRSKPSPNRSTGKKDSPTVSSSTAAVIDVDDPSLDNPDLGPFLLKLARDAIASGEGPNKALDYAIRATKSFERCCAAVAPPIPGGSDGGPVLDLAMSLHVLAAIYCSLGRFDEAVPPLERAIQVPDPTRGPDHSLAAFSGHMQLGDTLSMLGQIDRSIACYEEGLKIQIQTLGDTDPRVGETCRYLAEAYVQAMQFNKAEELCKKTLEIHRAHSEPASLEEAADRRLMAIICEAKGDYENALEHLVLASMAMIASGQESEVASIDVSIGNIYMSLCRFDEAVFSYQKALTVFKASKGETHPTVASVFVRLAELYHRTGKLRESKSYCENALRIYNKPVPGTTVEEIAGGLTEISAIYESVDEPEEALKLLQKSMKLLEDKPGQQSAIAGLEARMGVMYYTVGRYEDARNAFESAVTKLRAAGEKSAFFGVVLNQMGLACVQLFKIDEAGELFEEARGILEQERGPCDQDTLGVYSNLAATYDAMGRIEDAIEILEQVLKLREEKLGTANPDFEDEKKRLAELLKEAGRSRNYKAKSLQNLIDPNARPPKKESSAKKWPSLGFKF
For B1, the binding entry in experiment [1] and in experiment [2] was “binds” throughout.
